Assay results: article PMC13323110
No constants are given. Whether binding was seen depends on the method and setting. Binding calls can cover weak binding; strength is not graded here. Where a sequence is shown, tags or fusion partners need not be part of it.

Protein sequences, listed by entry. Tags and fused reporters are not part of them. Lines headed by an entry give the natural chain unless they say otherwise; changes in a name come on top.
UniProt P40120: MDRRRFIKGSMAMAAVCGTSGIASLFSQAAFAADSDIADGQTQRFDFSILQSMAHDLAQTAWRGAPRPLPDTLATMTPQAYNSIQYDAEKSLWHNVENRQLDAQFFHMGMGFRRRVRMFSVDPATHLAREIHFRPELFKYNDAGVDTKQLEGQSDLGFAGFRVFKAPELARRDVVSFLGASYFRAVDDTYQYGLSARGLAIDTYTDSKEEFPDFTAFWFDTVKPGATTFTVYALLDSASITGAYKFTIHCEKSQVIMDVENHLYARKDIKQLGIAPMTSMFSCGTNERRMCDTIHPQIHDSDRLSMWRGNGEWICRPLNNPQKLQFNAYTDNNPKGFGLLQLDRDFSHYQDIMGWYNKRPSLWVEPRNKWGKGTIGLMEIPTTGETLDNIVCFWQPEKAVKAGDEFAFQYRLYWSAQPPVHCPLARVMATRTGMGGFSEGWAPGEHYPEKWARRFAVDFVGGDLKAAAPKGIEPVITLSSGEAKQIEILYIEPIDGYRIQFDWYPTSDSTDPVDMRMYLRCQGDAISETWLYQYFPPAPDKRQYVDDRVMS

Biological target: T1, E. coli TatC with C-terminal Twin-Strep tag, expressed from a tatABC plasmid (Escherichia coli) (UniProt P69423)
T1 sequence: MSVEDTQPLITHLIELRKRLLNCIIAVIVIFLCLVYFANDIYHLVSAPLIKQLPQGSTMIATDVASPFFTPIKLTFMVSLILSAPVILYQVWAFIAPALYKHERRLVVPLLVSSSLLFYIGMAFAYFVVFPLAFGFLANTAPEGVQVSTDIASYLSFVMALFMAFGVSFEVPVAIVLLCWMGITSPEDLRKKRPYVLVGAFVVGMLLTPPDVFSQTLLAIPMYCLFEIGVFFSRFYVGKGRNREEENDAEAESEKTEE
Assay: cryo-EM structure; complex assembled in vitro: Ulp1-cut His6-SUMO-MdoD or -CueO mixed with purified E. coli TatBC or TatABC complex overnight at 4 °C, SEC in 50 mM Tris pH 8.0, 200 mM NaCl, 1 mM EDTA, 0.02% GDN; excess substrate; both purified

- binding: binds
Substance: E. coli MdoD, full length with its Tat signal peptide (from UniProt P40120)
